# Measured values taken from the supplement of paper PMC8728848.
# The other results are listed elsewhere or left out.
# B1: AntigenI/IIC123 (Streptococcus mutans), C9E3B4 (protein)
# chain: MASMTGGQQMGRIHFHYFKLAVQPQVNKEIRNNNDINIDRTLVAKQSVVKFQLKTADLPAGRDETTSFVLVDPLPSGYQFNPEATKAASPGFDVTYDNATNTVTFKATAATLATFNADLTKSVATIYPTVVGQVLNDGATYKNNFTLTVNDAYGIKSNVVRVTTPGKPNDPDNPNNNYIKPTKVNKNENGVVIDGKTVLAGSTNYYELTWDLDQYKNDRSSADTIQKGFYYVDDYPEEALELRQDLVKITDANGNEVTGVSVDNYTNLEAAPQEIRDVLSKAGIRPKGAFQIFRADNPREFYDTYVKTGIDLKIVSPMVVKKQMGQTGGSYENQAYQIDFGNGYASNIIINNVPKINPKKDVTLTLDPADTNNVDGQTIPLNTVFNYRLIGGIIPADHSEELFEYNFYDDYDQTGDHYTGQYKVFAKVDITFKDGSIIKSGAELTQYTTAEVDTAKGAITIKFKEAFLRSVSIDSAFQAESYIQMKRIAVGTFENTYINTVNGVTYSSLEHHHHHH
# Key:
# Experiment in all cases: glycan array binding signal (z-score within array); higher = stronger binding
# Conditions in all cases: glycan notation: IUPAC condensed, linker removed
# [1] = biological target: Neu5Ac(a2-3)Gal(b1-4)Glc
# How it was run: (§1)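 Columns mapping to the same glycan were averaged after glycan names were converted to IUPAC-condensed notation. The data come from 3228 arrays in the Consortium for Functional Glycomics database, limited to those with an available protein sequence. Binding is reported as a within-array Z-score averaged across arrays of one protein sequence and across linkers.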
# [2] = biological target: Neu5Ac(a2-3)Gal(b1-4)GlcNAc
# How it was run: as §1
# [3] = biological target: Neu5Ac(a2-3)Gal(b1-4)GlcNAc(b1-2)Man
# How it was run: as §1
# [4] = biological target: Neu5Ac(a2-3)Gal(b1-4)GlcNAc(b1-2)Man(a1-3)[GlcNAc(b1-4)][Neu5Ac(a2-3)Gal(b1-4)GlcNAc(b1-2)Man(a1-6)]Man(b1-4)GlcNAc(b1-4)GlcNAc
# How it was run: as §1
# [5] = biological target: Neu5Ac(a2-3)Gal(b1-4)GlcNAc(b1-2)Man(a1-3)[Neu5Ac(a2-3)Gal(b1-4)GlcNAc(b1-2)Man(a1-6)]Man(b1-4)GlcNAc(b1-4)GlcNAc
# How it was run: as §1
# [6] = biological target: Neu5Ac(a2-3)Gal(b1-4)GlcNAc(b1-2)Man(a1-3)[Neu5Ac(a2-3)Gal(b1-4)GlcNAc(b1-2)Man(a1-6)]Man(b1-4)GlcNAc(b1-4)[Fuc(a1-6)]GlcNAc
# How it was run: as §1
# [7] = biological target: Neu5Ac(a2-3)Gal(b1-4)GlcNAc(b1-2)Man(a1-3)[Neu5Ac(a2-6)Gal(b1-4)GlcNAc(b1-2)Man(a1-6)]Man(b1-4)GlcNAc(b1-4)GlcNAc
# How it was run: as §1
# [8] = biological target: Neu5Ac(a2-3)Gal(b1-4)GlcNAc(b1-2)[Neu5Ac(a2-3)Gal(b1-4)GlcNAc(b1-4)]Man(a1-3)[GlcNAc(b1-4)][Neu5Ac(a2-3)Gal(b1-4)GlcNAc(b1-2)[Neu5Ac(a2-3)Gal(b1-4)GlcNAc(b1-6)]Man(a1-6)]Man(b1-4)GlcNAc(b1-4)GlcNAc
# How it was run: as §1
# [9] = biological target: Neu5Ac(a2-3)Gal(b1-4)GlcNAc(b1-2)[Neu5Ac(a2-3)Gal(b1-4)GlcNAc(b1-4)]Man(a1-3)[GlcNAc(b1-4)][Neu5Ac(a2-3)Gal(b1-4)GlcNAc(b1-4)Man(a1-6)]Man(b1-4)GlcNAc(b1-4)GlcNAc
# How it was run: as §1
# [10] = biological target: Neu5Ac(a2-3)Gal(b1-4)GlcNAc(b1-2)[Neu5Ac(a2-3)Gal(b1-4)GlcNAc(b1-6)]Man(a1-6)[Neu5Ac(a2-3)Gal(b1-4)GlcNAc(b1-2)Man(a1-3)]Man(b1-4)GlcNAc(b1-4)GlcNAc
# How it was run: as §1
# [11] = biological target: Neu5Ac(a2-3)Gal(b1-4)GlcNAc(b1-2)[Neu5Ac(a2-3)Gal(b1-4)GlcNAc(b1-6)]Man(a1-6)[Neu5Ac(a2-3)Gal(b1-4)GlcNAc(b1-2)Man(a1-3)][GlcNAc(b1-4)]Man(b1-4)GlcNAc(b1-4)GlcNAc
# How it was run: as §1
# [12] = biological target: Neu5Ac(a2-3)Gal(b1-4)GlcNAc(b1-3)Gal
# How it was run: as §1
# [13] = biological target: Neu5Ac(a2-3)Gal(b1-4)GlcNAc(b1-3)Gal(b1-3)GlcNAc
# How it was run: as §1
# [14] = biological target: Neu5Ac(a2-3)Gal(b1-4)GlcNAc(b1-3)Gal(b1-4)GlcNAc
# How it was run: as §1
# [15] = biological target: Neu5Ac(a2-3)Gal(b1-4)GlcNAc(b1-3)Gal(b1-4)GlcNAc(b1-2)Man(a1-3)[Neu5Ac(a2-3)Gal(b1-4)GlcNAc(b1-3)Gal(b1-4)GlcNAc(b1-2)Man(a1-6)]Man(b1-4)GlcNAc(b1-4)GlcNAc
# How it was run: as §1
# [16] = biological target: Neu5Ac(a2-3)Gal(b1-4)GlcNAc(b1-3)Gal(b1-4)GlcNAc(b1-3)Gal(b1-4)GlcNAc
# How it was run: as §1
# [17] = biological target: Neu5Ac(a2-3)Gal(b1-4)GlcNAc(b1-3)Gal(b1-4)GlcNAc(b1-3)Gal(b1-4)GlcNAc(b1-2)Man(a1-3)[Neu5Ac(a2-3)Gal(b1-4)GlcNAc(b1-3)Gal(b1-4)GlcNAc(b1-3)Gal(b1-4)GlcNAc(b1-2)Man(a1-6)]GalNAc
# How it was run: as §1
# [18] = biological target: Neu5Ac(a2-3)Gal(b1-4)GlcNAc(b1-3)Gal(b1-4)GlcNAc(b1-3)GalNAc
# How it was run: as §1
# [19] = biological target: Neu5Ac(a2-3)Gal(b1-4)GlcNAc(b1-3)Gal(b1-4)GlcNAc(b1-3)[Neu5Ac(a2-3)Gal(b1-4)GlcNAc(b1-3)Gal(b1-4)GlcNAc(b1-6)]GalNAc
# How it was run: as §1
# [20] = biological target: Neu5Ac(a2-3)Gal(b1-4)GlcNAc(b1-3)Gal(b1-4)GlcNAc(b1-6)[Gal(b1-3)]GalNAc
# How it was run: as §1
# [21] = biological target: Neu5Ac(a2-3)Gal(b1-4)GlcNAc(b1-3)Gal(b1-4)[Fuc(a1-3)]GlcNAc
# How it was run: as §1
# [22] = biological target: Neu5Ac(a2-3)Gal(b1-4)GlcNAc(b1-3)GalNAc
# How it was run: as §1
# [23] = biological target: Neu5Ac(a2-3)Gal(b1-4)GlcNAc(b1-3)[Neu5Ac(a2-3)Gal(b1-4)GlcNAc(b1-6)]GalNAc
# How it was run: as §1
# [24] = biological target: Neu5Ac(a2-3)Gal(b1-4)GlcNAc(b1-6)GalNAc
# How it was run: as §1
# [25] = biological target: Neu5Ac(a2-3)Gal(b1-4)GlcNAc(b1-6)[Gal(b1-3)]GalNAc
# How it was run: as §1
# [26] = biological target: Neu5Ac(a2-3)Gal(b1-4)GlcNAc(b1-6)[Neu5Ac(a2-3)Gal(b1-3)]GalNAc
# How it was run: as §1
# [27] = biological target: Neu5Ac(a2-3)Gal(b1-4)GlcNAc6S
# How it was run: as §1
# [28] = biological target: Neu5Ac(a2-3)Gal(b1-4)[Fuc(a1-3)]GlcNAc
# How it was run: as §1
# [29] = biological target: Neu5Ac(a2-3)Gal(b1-4)[Fuc(a1-3)]GlcNAc(b1-2)Man
# How it was run: as §1
# [30] = biological target: Neu5Ac(a2-3)Gal(b1-4)[Fuc(a1-3)]GlcNAc(b1-3)Gal
# How it was run: as §1
# [31] = biological target: Neu5Ac(a2-3)Gal(b1-4)[Fuc(a1-3)]GlcNAc(b1-3)Gal(b1-4)GlcNAc
# How it was run: as §1
# [32] = biological target: Neu5Ac(a2-3)Gal(b1-4)[Fuc(a1-3)]GlcNAc(b1-3)Gal(b1-4)[Fuc(a1-3)]GlcNAc(b1-3)Gal(b1-4)[Fuc(a1-3)]GlcNAc
# How it was run: as §1
# [33] = biological target: Neu5Ac(a2-3)Gal(b1-4)[Fuc(a1-3)]GlcNAc(b1-3)GalNAc
# How it was run: as §1
# [34] = biological target: Neu5Ac(a2-3)Gal(b1-4)[Fuc(a1-3)]GlcNAc(b1-6)[Gal(b1-3)]GalNAc
# How it was run: as §1
# [35] = biological target: Neu5Ac(a2-3)Gal(b1-4)[Fuc(a1-3)]GlcNAc(b1-6)[Neu5Ac(a2-3)Gal(b1-3)]GalNAc
# How it was run: as §1
# [36] = biological target: Neu5Ac(a2-3)Gal(b1-4)[Fuc(a1-3)]GlcNAc6S
# How it was run: as §1
# [37] = biological target: Neu5Ac(a2-3)Gal6S(b1-4)GlcNAc
# How it was run: as §1
# [38] = biological target: Neu5Ac(a2-3)Gal6S(b1-4)[Fuc(a1-3)]GlcNAc
# How it was run: as §1
binder,measurement,setting,value
B1,glycan array binding signal (z-score),[1],-0.698
same,glycan array binding signal (z-score),[2],-0.319
same,glycan array binding signal (z-score),[3],0.297
same,glycan array binding signal (z-score),[4],0.168
same,glycan array binding signal (z-score),[5],-1.13
same,glycan array binding signal (z-score),[6],1.92
same,glycan array binding signal (z-score),[7],-0.814
same,glycan array binding signal (z-score),[8],-0.712
same,glycan array binding signal (z-score),[9],-0.575
same,glycan array binding signal (z-score),[10],0.84
same,glycan array binding signal (z-score),[11],-1.1
same,glycan array binding signal (z-score),[12],-0.747
same,glycan array binding signal (z-score),[13],-0.354
same,glycan array binding signal (z-score),[14],0.843
same,glycan array binding signal (z-score),[15],-0.924
same,glycan array binding signal (z-score),[16],-0.469
same,glycan array binding signal (z-score),[17],2.55
same,glycan array binding signal (z-score),[18],-0.69
same,glycan array binding signal (z-score),[19],-0.714
same,glycan array binding signal (z-score),[20],-1.04
same,glycan array binding signal (z-score),[21],-0.47
same,glycan array binding signal (z-score),[22],-0.658
same,glycan array binding signal (z-score),[23],1.08
same,glycan array binding signal (z-score),[24],-0.138
same,glycan array binding signal (z-score),[25],-0.803
same,glycan array binding signal (z-score),[26],-0.22
same,glycan array binding signal (z-score),[27],-0.553
same,glycan array binding signal (z-score),[28],-0.482
same,glycan array binding signal (z-score),[29],-0.89
same,glycan array binding signal (z-score),[30],-0.18
same,glycan array binding signal (z-score),[31],0.457
same,glycan array binding signal (z-score),[32],-0.857
same,glycan array binding signal (z-score),[33],2.69
same,glycan array binding signal (z-score),[34],2.24
same,glycan array binding signal (z-score),[35],0.678
same,glycan array binding signal (z-score),[36],-0.3
same,glycan array binding signal (z-score),[37],-0.218
same,glycan array binding signal (z-score),[38],-1.48

# Some of the entries above, reformatted:
binder	measurement	setting	value
B1	glycan array binding signal (z-score)	[8]	-0.712
same	glycan array binding signal (z-score)	[13]	-0.354
